# PubChem BioAssay AID540256 (National Center for Advancing Translational Sciences (NCATS), 2011)
# Out of some 300,000 compounds screened, about 3,700 (1.2%) were called active. This list was built around the results that the source calls inconclusive (neither active nor inactive); the mix of calls is not that of the screen. Calls follow the shape of the full dose curve; tested in HEK293 cells. Where the call is inconclusive, the potency comes from a doubtful curve fit.
# Assay: qHTS for Inhibitors of binding or entry into cells for Lassa Virus; also: nearly all actives have a fitted effect of over 50% in size
# Settings: Lassa virus pseudotype entry inhibition, cell reporter; activity change, negative = inhibition: at 37.9 µM (top of the series) unless noted
# % is scaled to controls: 0 for no effect and ±100 for the full control effect; potency is read from the fitted curve at half-maximal effect.
Structure (SMILES),Potency,"activity change, negative = inhibition"
CCOc1ccc(CN2C(=O)c3ccccc3Sc3ccc(C(=O)NCCCN4CCOCC4)cc32)cc1,"inconclusive: 35.5 µM [inhibitor, single point]",
C/C(=N\NC(=O)c1ccc([N+](=O)[O-])c(C)c1)c1ccccc1Cl,,inactive: 16.2%
CN1CCC(C)(O)C2CCCCC21 (configuration not stated),"inconclusive: 5.62 µM [inhibitor, single point]",
COc1ccc2cc(C#N)c(N3CCOCC3)nc2c1,"inconclusive: 5.62 µM [inhibitor, single point]",
Nc1nc(NCCCN2CCOCC2)nc(Nc2ccc(F)cc2)c1[N+](=O)[O-],,inactive: -4.31%
Cc1cc(C)cc(NS(=O)(=O)CCCS(=O)(=O)Nc2cc(C)cc(C)c2)c1,"inconclusive: 35.5 µM [inhibitor, single point]",
COc1ccc(S(=O)(=O)NCc2ccc3c(c2)CCN3C(C)=O)cc1OC,"inconclusive: 6.31 µM [activator, single point]",
CCOC(=O)N1CCN(CCC(=O)c2ccc(Br)cc2)CC1,"inconclusive: 35.5 µM [inhibitor, single point]",
CC(C)COc1cccc(C(=O)Nc2ccc(CN3CCOCC3)cc2)c1,"inconclusive: 25.1 µM [inhibitor, single point]",
COc1ccc(OCC(O)CN(CCO)CC(O)Cn2ccc3ccccc32)cc1 (configuration not stated),"inconclusive: 0.891 µM [inhibitor, full curve, poor fit]",
Cc1ccc(-n2nnc3c(=O)oc4ccccc4c32)cc1,,inactive: -3.04%
O=C(Nc1cccc2ccccc12)c1ccc(OC(=S)N2CCOCC2)cc1,active: 1.46 µM,
O=C(/C=C/c1ccc2c(c1)OCCO2)c1ccc(O)cc1,"inconclusive: 35.5 µM [inhibitor, partial curve, poor fit]",
COc1ccc(CN(Cc2cccnc2)C(=S)NCCc2ccccc2)cc1OC,,inactive: 11%
CC(C)c1ccc(/C=C/C2=NNC(=O)CC2)cc1,"inconclusive: 7.08 µM [inhibitor, partial curve]",
COc1ccc(Nc2ccc(Cl)cc2)c(C(=O)O)c1,"inconclusive: 35.5 µM [inhibitor, single point]",
COc1ccc(-n2c(SCc3ccc(C#N)cc3)nnc2-c2ccccn2)cc1,"inconclusive: 2 µM [inhibitor, partial curve, poor fit]",
O=C(Nc1ccccc1Cl)NC1CCCCCCC1,,inactive: 15.2% [at 46.1 µM]
COc1ccccc1-c1noc(CSc2nnc(-c3ccccc3)n2-c2ccc(C)c(C)c2)n1,"inconclusive: 17.8 µM [inhibitor, partial curve, poor fit]",
COc1ccc(S(=O)(=O)N2CC(O)CC2C(=O)OCC(=O)Nc2ccc(Cl)cn2)cc1 (configuration not stated),"inconclusive: 31.6 µM [activator, partial curve, poor fit]",
CC1(C)O[C@@H](C(O)(c2cc(F)c(F)c(F)c2)c2cc(F)c(F)c(F)c2)[C@H](C(O)(c2cc(F)c(F)c(F)c2)c2cc(F)c(F)c(F)c2)O1,"inconclusive: 7.5 µM [inhibitor, single point]",
CN(CC(=O)Nc1ccc(Cl)c(C(F)(F)F)c1)C(=O)c1cccs1,"inconclusive: 39.8 µM [inhibitor, single point]",
Cc1ccc2c(c1)N(CC(=O)NCCCN1CCN(C)CC1)C(=O)CO2,"inconclusive: 1.26 µM [inhibitor, single point]",

Structure (SMILES),Potency,"activity change, negative = inhibition"
CCOC(=O)CNC(=O)Nc1cc(C(=O)NCc2ccc(C(C)C)cc2)ccc1N1CCCC1,,inactive: 22.4% [at 46.1 µM]
CC(C)Cc1ccc(C(=O)NCCOc2ccccc2)o1,active: 2.82 µM,
COc1ccc(OC)c(NC(=O)c2cccnc2Sc2cc(C)ccc2C)c1,"inconclusive: 22.4 µM [inhibitor, partial curve, poor fit]",
O=C(Nc1cccnc1N1CCOCC1)c1cc2ccccc2oc1=O,,inactive: 14.8%
O=C(NCc1cccnc1)C1CCN(c2ccc(S(=O)(=O)N3CCOCC3)cc2Cl)CC1,"inconclusive: 10 µM [inhibitor, partial curve, poor fit]",
CCOC(=O)c1cccc(NC(=O)CCc2nc(-c3ccccc3F)no2)c1,,inactive: -11.3%
C=C(C)Cn1c(N2CCC(Cc3ccccc3)CC2)nc2c1c(=O)[nH]c(=O)n2C,"inconclusive: 15.8 µM [inhibitor, partial curve]",
Cc1ccccc1C(=O)N/N=C/c1ccccn1,"inconclusive: 35.5 µM [inhibitor, single point]",
COc1cc(C2C=C(C34CC5CC(CC(C5)C3)C4)NC(=S)N2)cc(OC)c1OC (configuration not stated),"inconclusive: 15.8 µM [inhibitor, single point]",
CC(C)c1ccc(NC(=O)N2CCN(c3ccc(Cl)c(Cl)c3)CC2)cc1,,inactive: 28.7% [at 46.1 µM]
Cc1ccc(-c2nnc(SCC(=O)Nc3nccs3)n2N)cc1,,inactive: -2.41%
COc1ccc2cc[nH]c2c1,"inconclusive: 3.98 µM [inhibitor, single point]",
Cc1cc(/C=N/NC(N)=S)c(C)n1-c1ccc(Cl)cc1,"inconclusive: 0.92 µM [inhibitor, full curve]",
COc1ccc(/C=N/N=C2/NC(=O)C(CC(=O)NC(N)=O)S2)cc1 (configuration not stated),"inconclusive: 35.5 µM [inhibitor, single point]",
Cn1cc(CN2CCc3c([nH]c4ccccc34)C2C(C)(C)C)cn1 (configuration not stated),"inconclusive: 4.47 µM [inhibitor, partial curve, poor fit]",
C[C@H]1[C@@H](c2ccccc2)Oc2c(Cl)cccc2S(=O)(=O)N1Cc1ccc(F)cc1F,"inconclusive: 0.0063 µM [activator, full curve, poor fit]",
COc1cc(CO)ccc1OCC(=O)N1CCc2ccccc21,,inactive: 27.9% [at 46.1 µM]
Cc1cccc(C)c1NC(=O)COC(=O)CCC(=O)c1cccs1,"inconclusive: 10 µM [inhibitor, partial curve, poor fit]",
COC(=O)c1cc2c(ccn2-c2ccc(F)cc2)n1C(C)C,,inactive: 0.123%
Cn1c(C(=O)Nc2ccc3c(c2)OCO3)cc2sccc21,,inactive: -1.65%
Cc1onc(-c2c(F)cccc2Cl)c1C(=O)Nc1cccc(S(=O)(=O)N2CCOCC2)c1,"inconclusive: 3.55 µM [inhibitor, single point]",
CCOC(=O)Cn1c(S(=O)(=O)Cc2ccc(Cl)cc2)nc(-c2ccccc2)c1-c1ccccc1,"inconclusive: 18.3 µM [inhibitor, partial curve, poor fit]",
c1ccc(C2Nc3ccccc3-c3nc4ccccc4n32)cc1 (configuration not stated),"inconclusive: 2.31 µM [activator, single point]",

# Fetched one by one from the entries so far, 6 records:
Structure (SMILES),Potency,"activity change, negative = inhibition"
O=C(Nc1cccnc1N1CCOCC1)c1cc2ccccc2oc1=O,,inactive: 14.8%
Cc1ccccc1C(=O)N/N=C/c1ccccn1,"inconclusive: 35.5 µM [inhibitor, single point]",
CCOC(=O)N1CCN(CCC(=O)c2ccc(Br)cc2)CC1,"inconclusive: 35.5 µM [inhibitor, single point]",
Cc1cccc(C)c1NC(=O)COC(=O)CCC(=O)c1cccs1,"inconclusive: 10 µM [inhibitor, partial curve, poor fit]",
O=C(Nc1cccc2ccccc12)c1ccc(OC(=S)N2CCOCC2)cc1,active: 1.46 µM,
COc1ccc(Nc2ccc(Cl)cc2)c(C(=O)O)c1,"inconclusive: 35.5 µM [inhibitor, single point]",

# (list continues)

Structure (SMILES),Potency,"activity change, negative = inhibition"
Cc1cc(C(F)F)n2ncc(C(=O)NC3CCCCCC3)c2n1,,inactive: -18.5%
CC1CCc2nc3ccccc3c(C(=O)OCC(=O)N3CCc4ccccc43)c2C1 (configuration not stated),"inconclusive: 35.5 µM [inhibitor, partial curve, poor fit]",
Cn1cc(C(c2ccccn2)c2cn(C)c3ccccc23)c2ccccc21,"inconclusive: 35.5 µM [inhibitor, partial curve, poor fit]",
C/C(N)=C(/C#N)C(=O)CSc1nnnn1-c1ccc(C)cc1C,"inconclusive: 29.1 µM [inhibitor, single point]",
COc1ccc(CCNc2oc(COc3cccc(C)c3)nc2C#N)cc1OC,"inconclusive: 35.5 µM [inhibitor, single point]",
CNc1nc(Nc2ccc(C)c(Cl)c2)nc(N)c1[N+](=O)[O-],"inconclusive: 0.501 µM [activator, full curve, poor fit]",
COc1ccc2[nH]c(C)c(CCNCc3cn(C)c4ccccc34)c2c1,"inconclusive: 35.5 µM [inhibitor, single point]",
Cc1ccc(NC(=O)c2cc(S(=O)(=O)N3CCCCCC3)ccc2F)cc1F,,inactive: 7.36% [at 46.1 µM]
COc1ccc(COC(=O)NN=C2C[C@@H](O)[C@@H](O)[C@@H]3[C@H]4C(=O)N([C@@H](C)c5ccccc5)C(=O)[C@@H]4CC[C@H]23)cc1,"inconclusive: 0.299 µM [inhibitor, full curve]",
O=C(NCc1cccnc1)/C(=N\O)c1ccccc1,,inactive: 10.4%
CCOc1ccccc1NC(=O)c1cc(S(=O)(=O)N2CCOCC2)cn1C,,inactive: 4.71% [at 46.1 µM]
Fc1ccccc1COc1ccc(/C=N/NC(=S)NCc2ccccc2)cc1,"inconclusive: 1.16 µM [inhibitor, full curve, poor fit]",
COc1ccc(C(=O)N2CCN(c3ccc([N+](=O)[O-])c(NCCc4ccc(OC)c(OC)c4)c3)CC2)cc1,active: 4.47 µM,
Cc1cc(O)c(C(=O)/C=C/c2ccccc2)c(=O)o1,,inactive: -12%
CC(Oc1ccccc1)C(=O)N1CCN=C1SCc1ccccc1F (configuration not stated),"inconclusive: 12.6 µM [inhibitor, partial curve, poor fit]",
Cc1cc(C(=O)Nc2cccc(-c3ccc(N4CCOCC4)nn3)c2)ccc1[N+](=O)[O-],"inconclusive: 10 µM [inhibitor, partial curve, poor fit]",
CC(C)(C)OC(=O)N1CCC(c2c(C(=O)NCc3ccccc3)cnn2-c2ccc(F)cc2)CC1,"inconclusive: 1.41 µM [inhibitor, partial curve, poor fit]",
CCNC(=S)NNC(=O)c1cc(-c2cccc(OC)c2)nc2ccccc12,"inconclusive: 23.1 µM [inhibitor, single point]",
CCOC(=O)Cn1c(S(=O)(=O)Cc2cccc(F)c2)nc(-c2ccccc2)c1-c1ccccc1,active: 7.3 µM,
Cc1ccc2nc(-c3ccc(SCC(=O)Nc4ccc5c(c4)OCCO5)nc3)[nH]c2c1,"inconclusive: 2.06 µM [activator, single point]",
O=C(Nc1cccc(F)c1)c1ccccc1,,inactive: 9.21%
